Experimental findings from paper PMC7819943, “Rice protein-binding microarrays: a tool to detect cis-acting elements near promoter regions in rice” are described below.

The list shows a part of the results.

In this test the target is T1, OsSMF1 (Oryza sativa, UniProt Q6ZLB0 1-436).
T1 sequence: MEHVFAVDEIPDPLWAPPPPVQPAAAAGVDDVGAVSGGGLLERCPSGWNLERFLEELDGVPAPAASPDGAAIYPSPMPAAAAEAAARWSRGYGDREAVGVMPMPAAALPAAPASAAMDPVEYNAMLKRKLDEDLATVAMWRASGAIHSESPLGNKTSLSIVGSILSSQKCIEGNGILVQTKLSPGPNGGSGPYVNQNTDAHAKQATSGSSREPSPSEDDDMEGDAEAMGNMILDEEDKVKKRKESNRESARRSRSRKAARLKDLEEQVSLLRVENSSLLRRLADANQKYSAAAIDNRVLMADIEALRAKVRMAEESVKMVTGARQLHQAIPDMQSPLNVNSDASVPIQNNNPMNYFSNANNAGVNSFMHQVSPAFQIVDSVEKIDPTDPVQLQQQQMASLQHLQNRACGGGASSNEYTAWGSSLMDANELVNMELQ
In words: protein-binding microarray (RPBM); PBS, 2% BSA, 51.3 ng/ul salmon testes DNA, 50 uM zinc acetate, 200 nM TF, 25 C, 1 h; high values mean tight binding. The following applies: protein: recombinant; tags: N-terminal polyhistidine and DsRed monomer fusion (pET32a); chain copies: 2; label: CyDye5-dUTP incorporated in the synthesized complementary strand; 3' TTTTT single-stranded linker to array surface; dsDNA, one strand shown. The essentials:
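Using Ni–NTA, transcription factors fused N-terminally to polyhistidine and DsRed were purified after expression in E. coli BL21-CodonPlus. These were incubated at 200 nM with a blocked, double-stranded custom Agilent array for 1 h at 25 °C in a buffer containing 50 µM zinc acetate, and the array was washed. The binding signal is per-feature fluorescence intensity (arbitrary units) on an Axon 4000B scanner.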
For “CCAACGTTCGCCCCGACGCGTTCCACCTCATCGGCCACCCCGGAGTCACCTAGTGCAG”, the binding signal was 8460 fluorescence intensity (a.u.).

“AGGCTGCGCCGCCACGGGCGCCTGCGTCACCCCGTCCCATCGGAGTCACCTAGTGCAG”: the binding signal is 4980 fluorescence intensity (a.u.).

For the sequence “ACAAAAGCCGCCGTGACGAAGCAGATCGAAGCATCGCGCCCGGAGTCACCTAGTGCAG”, the binding signal is 3550 fluorescence intensity (a.u.).

With “AGATATATGCATACGTGTTTAAAGCTTATCACTATATCAACGGAGTCACCTAGTGCAG”, the binding signal was 6090 fluorescence intensity (a.u.).

Take “GATCCTCTCCATGTCAGCAGATGAAGCAGCAGCCATCCCGCGGAGTCACCTAGTGCAG”: the binding signal was 5220 fluorescence intensity (a.u.).

With “TTATTGATACATGGCTGGGACGCCGCGACGTCACCGCTCCCGGAGTCACCTAGTGCAG”, the binding signal was 5060 fluorescence intensity (a.u.).

In the case of “GACACATGAGGGTCCACGTGTTATAGATAGTGAGTGGCAGCGGAGTCACCTAGTGCAG”, the binding signal is 9820 fluorescence intensity (a.u.).

Turning to “AAGATGTGTCATACATGACATCTTACTTTATATTTCTTATCGGAGTCACCTAGTGCAG”, the binding signal is 3600 fluorescence intensity (a.u.).

As to “AAGCCTCTTGTCGTCTCTTTGACCCAACGACCCCGCCATTCGGAGTCACCTAGTGCAG”, the binding signal was 3230 fluorescence intensity (a.u.).

Regarding “TCAACACTGCCACGTAAGCACCACGTAAGCTAAAACCGCTCGGAGTCACCTAGTGCAG”, the binding signal is 27100 fluorescence intensity (a.u.).

Regarding “CCTCCACCCTCACCGGCGCCACGCCGACGCCTCCGCCCTCCGGAGTCACCTAGTGCAG”, the binding signal was 5600 fluorescence intensity (a.u.).

Consider “GCTAACCAATTGAGAATCATCGACGTTGTGTCATCTTGTGCGGAGTCACCTAGTGCAG”, for which the binding signal is 4250 fluorescence intensity (a.u.).

As to “CTTGCAAGGTGTTGGATTCGACTTGTATAACTTGAACTGCCGGAGTCACCTAGTGCAG”, the binding signal is 3520 fluorescence intensity (a.u.).

In the case of “TCCCTCCTCCCCGTCGTCACAAGCCACGTCATCGATCCGCCGGAGTCACCTAGTGCAG”, the binding signal is 40000 fluorescence intensity (a.u.).

As to “TCTTCTTTCTTGGTGGTGGTGAGTGTACTGCCTTTATCTGCGGAGTCACCTAGTGCAG”, the binding signal is 3440 fluorescence intensity (a.u.).

For the sequence “TCCTCACCTTCCTGCGCCTGAAAAGTTGGGGCCAATCCGGCGGAGTCACCTAGTGCAG”, the binding signal is 3460 fluorescence intensity (a.u.).

As to “GACACCACCGCCGCCGCCGTCCTCGTCATCTCCAGATCGCCGGAGTCACCTAGTGCAG”, the binding signal is 9120 fluorescence intensity (a.u.).

Turning to “GGATCCGTACGTGAGGGTGGGCCCCACACGTCAGCGAGGCCGGAGTCACCTAGTGCAG”, the binding signal was 12600 fluorescence intensity (a.u.).

In the case of “CCTTTTGTCGATAAGTCACGATCATCAACTGAGAGCATTCCGGAGTCACCTAGTGCAG”, the binding signal is 19300 fluorescence intensity (a.u.).

For “AGAGAAGAGAGAAGAGAGAAGTGACGGGTGGGTCCCACGTCGGAGTCACCTAGTGCAG”, the binding signal was 3530 fluorescence intensity (a.u.).

For “AAGCGTAATAGCTCATCTTTTATCATGCCTGGTCGACATGCGGAGTCACCTAGTGCAG”, the binding signal was 4590 fluorescence intensity (a.u.).

“TAGTAGCGTTCGATACTTCGGTATCAATTATCAAACTTACCGGAGTCACCTAGTGCAG”: the binding signal was 3490 fluorescence intensity (a.u.).

“ACAGTACCCGTACTTTCGTGCCACGCTGGCACCGACAAAGCGGAGTCACCTAGTGCAG”: the binding signal was 9790 fluorescence intensity (a.u.).

As to “AGGATGGGTTGATGGGAATGGAATATGACACGAGCCGTGTCGGAGTCACCTAGTGCAG”, the binding signal was 3160 fluorescence intensity (a.u.).

Consider “CACTTTAAGAGTTCTTCAATTTGTGTTTCACCGGGTTTCGCGGAGTCACCTAGTGCAG”, for which the binding signal is 3520 fluorescence intensity (a.u.).

Turning to “ATAACGGTGCTAATCTACTGGTGACTGTGCCTGGTGGTGGCGGAGTCACCTAGTGCAG”, the binding signal was 4380 fluorescence intensity (a.u.).

Regarding “CTTATTATGGTTATATGTGCAGGTATGGAGTAATAACTGACGGAGTCACCTAGTGCAG”, the binding signal is 46400 fluorescence intensity (a.u.).

Take “ACCGTGACCCTGCCACCTCCTCCGGCGACCGGGGCAACCGCGGAGTCACCTAGTGCAG”: the binding signal is 3260 fluorescence intensity (a.u.).

Consider “TTGGTGGTGAAGGGGAGGGCGCATGCGACGTGGAGGGTGTCGGAGTCACCTAGTGCAG”, for which the binding signal was 7990 fluorescence intensity (a.u.).

With “ACGTTCATGGCCAGTAATTGTGTGACTTCACCGTCGGTCCCGGAGTCACCTAGTGCAG”, the binding signal was 4240 fluorescence intensity (a.u.).

Take “ATTCGGCCTCGTGGCTATGTACGCTGAGTGTACGAACGTGCGGAGTCACCTAGTGCAG”: the binding signal is 4020 fluorescence intensity (a.u.).

Take “AGCTTAGCTACTTATTAATTAGACAATTACTGTATGCATGCGGAGTCACCTAGTGCAG”: the binding signal was 29800 fluorescence intensity (a.u.).

For the sequence “AGCGCCGAGACCAACGGCCAGCCACGCAGCCTCCTCGACCCGGAGTCACCTAGTGCAG”, the binding signal is 4270 fluorescence intensity (a.u.).

Take “ACCTATGTATAGTTAGTGTTGTCGTGGTGTAATTTCAACGCGGAGTCACCTAGTGCAG”: the binding signal is 3140 fluorescence intensity (a.u.).

As for “TCAGCAAGTTGCCCATTCCTATTCTGCCTGACGCATCGTGCGGAGTCACCTAGTGCAG”, the binding signal is 3150 fluorescence intensity (a.u.).

In the case of “CACAATATTAATATTATGGCTTAAATAATTGGTTTTACGACGGAGTCACCTAGTGCAG”, the binding signal is 24100 fluorescence intensity (a.u.).

Regarding “ATAAGGGCCAGCATGTACGTGACAGTGCCATTCGGGCCCACGGAGTCACCTAGTGCAG”, the binding signal is 4850 fluorescence intensity (a.u.).

Regarding “AGTTTCACAACCCGCGCAGACACTGGCATCGGTGTCATCGCGGAGTCACCTAGTGCAG”, the binding signal was 3940 fluorescence intensity (a.u.).

For the sequence “AGAGGAATAAGAGGAAGGGGAGGAAATTTTCGAAACGCGACGGAGTCACCTAGTGCAG”, the binding signal is 26700 fluorescence intensity (a.u.).

On to “TATGATGATTAATGATATAATAATAAGTATGACGGACAATCGGAGTCACCTAGTGCAG”, for which the binding signal was 4790 fluorescence intensity (a.u.).

On to “CAATTTCAGAAACCAAGAGATTCCCCTTCGCCAACTCAGCCGGAGTCACCTAGTGCAG”, for which the binding signal was 7000 fluorescence intensity (a.u.).

As for “TTGATTAATATTATGTGTACACAAAGTTGTCACCATCCATCGGAGTCACCTAGTGCAG”, the binding signal was 3970 fluorescence intensity (a.u.).
